In US20230295343A1 (NINGBO COMGEN BIOTECH, published 2023):
These are yes or no findings as the source states them, for the method shown. Some binding calls cover weakened binding; strength is not graded here.

Experiments:
[1] = target: T1, fibronectin domain type II (FBII) of FXII (UniProt P00748); assay: western blot of FXII domains probed with N4-38, anti-6xHIS-HRP detection
T1 sequence (looked up): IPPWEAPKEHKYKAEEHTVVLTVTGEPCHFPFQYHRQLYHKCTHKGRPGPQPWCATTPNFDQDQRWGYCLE

[2] = target: T2, kringle (KNG) domain of FXII (UniProt P00748); assay: as above
T2 sequence (looked up): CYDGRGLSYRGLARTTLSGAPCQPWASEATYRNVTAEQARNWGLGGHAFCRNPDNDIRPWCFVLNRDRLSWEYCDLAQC

[3] = target: T3, denatured human FXII (human) (UniProt P00748); assay: dot blot on NC membrane, anti-6HIS-HRP detection
T3 sequence (looked up): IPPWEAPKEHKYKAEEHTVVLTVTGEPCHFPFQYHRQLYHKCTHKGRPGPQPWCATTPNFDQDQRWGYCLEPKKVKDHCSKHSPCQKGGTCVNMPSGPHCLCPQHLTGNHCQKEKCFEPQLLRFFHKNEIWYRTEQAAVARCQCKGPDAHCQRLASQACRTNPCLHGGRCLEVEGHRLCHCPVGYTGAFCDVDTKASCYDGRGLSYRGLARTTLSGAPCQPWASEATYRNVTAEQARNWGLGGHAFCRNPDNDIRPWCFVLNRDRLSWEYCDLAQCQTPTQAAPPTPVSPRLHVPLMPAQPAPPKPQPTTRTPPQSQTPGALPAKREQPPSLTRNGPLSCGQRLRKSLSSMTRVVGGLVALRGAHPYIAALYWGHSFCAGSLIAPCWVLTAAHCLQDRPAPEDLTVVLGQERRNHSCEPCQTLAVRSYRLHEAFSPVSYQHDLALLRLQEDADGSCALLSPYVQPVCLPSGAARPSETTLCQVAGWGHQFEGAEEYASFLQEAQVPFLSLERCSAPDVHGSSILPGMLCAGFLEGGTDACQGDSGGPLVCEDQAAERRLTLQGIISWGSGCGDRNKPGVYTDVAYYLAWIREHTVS

Measured: binding

B1: nanobody N4-38 (VHH)
VHH: QVQLVESGGGLVQAGGSLRLSCAASGRTGNAYRMGWFRQAPGKEREFVAAISWNGDSTNYADSVKGRFTISRDNAKNTVYLQMNSLKPEDTAVYYCAVVKGIGVPPNMYDYWGQGTQVTVSS
notes: Alpaca nanobody expressed in E. coli from PET26b; also called N38; N4-38 antibody
binds: all assays above
